From the supplement of paper PMC10735217
The list shows a part of the results. Single values are uncertain here, since repeats match poorly.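 Human kidney-derived cells stably carry a construct in which eight TEAD-binding elements drive luciferase, measured by luminescence in a drug-repurposing library screen. A hit is any compound whose signal exceeds the plate mean by more than five robust Z scores.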

System: HEK293A TEAD-LUC reporter
Test: TEAD-luciferase reporter activity (YAP activation), robust Z score vs plate; higher = stronger YAP/TEAD activation
Conditions: 24 h

Row | Structure (SMILES) | TEAD-luciferase reporter activity (compound concentration: 200 nM) | TEAD-luciferase reporter activity (compound concentration: 2 uM) | TEAD-luciferase reporter activity (compound concentration: 10 uM)
1 | O=C(CCCN1CCC(n2c(=S)[nH]c3ccccc32)CC1)c1ccc(F)cc1 [timiperone] | inactive: -2.99 | inactive: -0.513 | inactive: 4.77
2 | Cc1c(Cl)cccc1Nc1ncccc1C(=O)OCC(O)CO (configuration not stated) | inactive: 1.36 | inactive: -0.522 | inactive: 3.72
3 | CCn1c2ccccc2c2cc(CN[C@H](C)CO)ccc21 | inactive: -1.18 | inactive: -0.916 | active: 9.77
4 | COC(F)(F)C(Cl)Cl [methoxyflurane, Medical Developments] | inactive: -1.07 |  | inactive: 0.0206
5 | COC(F)(F)C(Cl)Cl [methoxyflurane] |  | inactive: -0.92 | 
6 | [O]=[Zn] | inactive: 0.953 |  | inactive: 0.162
7 | CC1=C(C(=O)N2CCCCC2)C(c2cc(Cl)cc(Cl)c2)n2nccc2N1 (configuration not stated) | inactive: -0.307 | inactive: -0.862 | inactive: -1.18
8 | Cc1ccccc1-c1cc(N2CCN(C)CC2)ncc1N(C)C(=O)C(C)(C)c1cc(C(F)(F)F)cc(C(F)(F)F)c1 [Netupitant] | inactive: -1.22 | inactive: -1.7 | inactive: -1.23
9 | O=CCCCC=O | inactive: 1.01 | inactive: -0.343 | inactive: -0.0268
10 | COc1ccccc1N1CCC(CNC[C@H]2COc3ccc(Cl)cc3O2)CC1 | inactive: -2.63 | inactive: -1.27 | inactive: -0.95
11 | Oc1ccc(CCCCNC[C@H](O)c2ccc(O)c(O)c2)cc1 | inactive: -2.5 | inactive: 0.512 | inactive: 3.51
12 | CCCNC(C)C(=O)Nc1ccccc1C (configuration not stated) | inactive: 0.708 |  | inactive: 0.0146
13 | CCCNC(C)C(=O)Nc1ccccc1C (configuration not stated) [Prilocaine] |  | inactive: -0.764 | 
14 | CC(C)(C)OC(=O)NCCN1CC2CN(C[C@H](O)COc3ccc(C#N)cc3)CC(C1)O2 [AZD 7009 (inakalant)] | inactive: -1.34 | inactive: -1.71 | inactive: 2.54
15 | CCCCCNC(=S)Nc1ccc(NC(C)=N)cc1 | inactive: 0.0652 | inactive: -0.0221 | inactive: -1.46
16 | Cc1ncc(-c2csc(NC(=N)N)n2)[nH]1 [Zaltidine] | inactive: -0.189 | inactive: -0.778 | inactive: -0.508
17 | CN1CCN(C(=O)c2nc3ccc(Cl)cc3[nH]2)CC1 | inactive: -1.05 | inactive: -1.19 | inactive: -0.437
18 | CC(=O)OCC1=C(C(=O)OC(C)(C)C)N2C(=O)[C@@H](NC(=O)[C@H](NC(=O)OCc3ccccc3)C(C)C)[C@H]2S(=O)(=O)C1 | inactive: -0.898 | inactive: -1.04 | inactive: -1.06

Excerpt: entries 2–3
Row | Structure (SMILES) | TEAD-luciferase reporter activity (compound concentration: 200 nM) | TEAD-luciferase reporter activity (compound concentration: 2 uM) | TEAD-luciferase reporter activity (compound concentration: 10 uM)
2 | Cc1c(Cl)cccc1Nc1ncccc1C(=O)OCC(O)CO (configuration not stated) | inactive: 1.36 | inactive: -0.522 | inactive: 3.72
3 | CCn1c2ccccc2c2cc(CN[C@H](C)CO)ccc21 | inactive: -1.18 | inactive: -0.916 | active: 9.77
